The text below walks through data of article PMC7819943, “Rice protein-binding microarrays: a tool to detect cis-acting elements near promoter regions in rice”.

Chains of the proteins cited; added tags and fusions are not shown.
UniProt Q0JBA9, entry or part of it: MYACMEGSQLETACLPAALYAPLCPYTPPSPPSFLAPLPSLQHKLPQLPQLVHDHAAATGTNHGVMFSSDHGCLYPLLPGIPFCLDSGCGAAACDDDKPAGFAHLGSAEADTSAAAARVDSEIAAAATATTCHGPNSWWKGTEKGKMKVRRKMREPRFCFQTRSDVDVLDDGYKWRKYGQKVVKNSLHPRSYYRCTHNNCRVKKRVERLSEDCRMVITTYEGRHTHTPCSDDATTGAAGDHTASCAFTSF

This is one part of the list.

This assay has as its target OsWRKY34 (Oryza sativa, UniProt Q0JBA9 1-250). The experiment in a line: protein-binding microarray (RPBM); PBS, 2% BSA, 51.3 ng/ul salmon testes DNA, 50 uM zinc acetate, 200 nM TF, 25 C, 1 h; high values mean tight binding. Particulars: protein: recombinant; tags: N-terminal polyhistidine and DsRed monomer fusion (pET32a); label: CyDye5-dUTP incorporated in the synthesized complementary strand; 3' TTTTT single-stranded linker to array surface; dsDNA, one strand shown. The method in brief:
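For the binding signal, per-feature fluorescence intensity was read in arbitrary units on an Axon 4000B scanner. Before scanning, a 2% BSA-blocked custom Agilent array made double-stranded with Cy5-dUTP was washed after 1 h at 25 °C with 200 nM protein and 50 µM zinc acetate. The proteins were Ni–NTA-purified transcription factors with N-terminal polyhistidine and DsRed fusions, expressed in E. coli BL21-CodonPlus.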
Consider “GGCGGGAGCGGGGCGGCACTGACGCACTGTTCGATTACACCGGAGTCACCTAGTGCAG”, for which the binding signal was 8190 fluorescence intensity (a.u.).
With “GCGACAGGAACCGGCCACTCATGTACATACTACTCCAAGCCGGAGTCACCTAGTGCAG” the figure was 8520 fluorescence intensity (a.u.); with “GCCGAGACCTTTGCTTAGACGGCGGTTTTCCCAGCTACCTCGGAGTCACCTAGTGCAG”, 9320 fluorescence intensity (a.u.); with “CAAACCCCACACACACAGCATCCGATATATATCTCGATCCCGGAGTCACCTAGTGCAG”, 8410 fluorescence intensity (a.u.).
With “TGTAGCGTTGGTTTCCACCCTTTTAAACATGCGTTAGATTCGGAGTCACCTAGTGCAG” the figure was 8730 fluorescence intensity (a.u.).
Take “TTCATTTTGTCCCTTTGCTCATCGTCCTGTCGGTATCCGTCGGAGTCACCTAGTGCAG”: the binding signal is 8940 fluorescence intensity (a.u.).
To “AGCTACGCTACGGCCCCACCCAACTGCTCTTCCTACGCGCCGGAGTCACCTAGTGCAG” belongs 8740 fluorescence intensity (a.u.); to “TCCGTCTCCATCTCCTACCTCGGGCCCTGAGCACATCCCCCGGAGTCACCTAGTGCAG”, 8920 fluorescence intensity (a.u.); to “CTTACCTGCACCAAATCGGACTGTCCAAGGTCCACAAGCTCGGAGTCACCTAGTGCAG”, 9350 fluorescence intensity (a.u.).
Turning to “TACTACTGCTTTACAAGTTTGCTATTCTACAGTTTTCTTACGGAGTCACCTAGTGCAG”, the binding signal was 9950 fluorescence intensity (a.u.).
To “TGTCCGTCTCGCGCGCCGGCTGCCGCTGCACTTGCCCATGCGGAGTCACCTAGTGCAG” belongs 8140 fluorescence intensity (a.u.); to “TAGATTTGACTATATTTTTTCTATCATCTCTTTCTCTAACCGGAGTCACCTAGTGCAG”, 8830 fluorescence intensity (a.u.).
Regarding “AATTTGTTCTTACTTTTGACTTTAGGATCAGGAACCATTTCGGAGTCACCTAGTGCAG”, the binding signal was 8530 fluorescence intensity (a.u.).
As for “TGACAACGGGGAGGGGAGGATGGGGCGGCGACGACAGGGGCGGAGTCACCTAGTGCAG”, the binding signal is 15500 fluorescence intensity (a.u.).
With “AACAGCATCTTTGGAGTACAAACACATCTATTGTCTCGTACGGAGTCACCTAGTGCAG” the figure was 8880 fluorescence intensity (a.u.); with “ACCCCGCCCACCGCCGCACCGCCATCCCCAACACTCGTTGCGGAGTCACCTAGTGCAG”, 8330 fluorescence intensity (a.u.).
With “GTGTGTTTTGATGCTCATCAAGTTGATTGTAGTCATGTAACGGAGTCACCTAGTGCAG” the figure was 8460 fluorescence intensity (a.u.).
To “GGACGCTTACGCCGTGCCCGCTCTCGTGTCACTGCCTCATCGGAGTCACCTAGTGCAG” belongs 8270 fluorescence intensity (a.u.).
“AGGACGATGGGCGCGATGGGATTTGTTCTTGACTGTTTTACGGAGTCACCTAGTGCAG”: the binding signal is 12000 fluorescence intensity (a.u.).
“AACTTGCGTTGACCACCCACGGGAACCATTCGTCAGATCCCGGAGTCACCTAGTGCAG”: the binding signal is 12400 fluorescence intensity (a.u.).
To “CTACTAGTCTTCGTCGTCCTCGTCCTCGGGCTTTCCTAGTCGGAGTCACCTAGTGCAG” belongs 11600 fluorescence intensity (a.u.); to “TGTATCTCTCTTGGTTGTAGCCCGTTGCAAATCATGGGCTCGGAGTCACCTAGTGCAG”, 8780 fluorescence intensity (a.u.).
To “TCACAATTTTTCTTTCCTTTTGCGCTTTTTTCTGATTATTCGGAGTCACCTAGTGCAG” belongs 16000 fluorescence intensity (a.u.); to “CCGTTATTAGCAAATATTTACTGTAGCACCATATTATCAACGGAGTCACCTAGTGCAG”, 8050 fluorescence intensity (a.u.); to “TACTGTTGCTTCGAATATTGCTTGTTTATTATTCCAAATTCGGAGTCACCTAGTGCAG”, 9240 fluorescence intensity (a.u.).
To “TCATTTTCTAATGTTGTGTTGTTTTCTGGGAAATGTAGGACGGAGTCACCTAGTGCAG” belongs 8890 fluorescence intensity (a.u.); to “GGATTATTGCTTGGTCTTCTTGTTCATGGGCTTATAAATACGGAGTCACCTAGTGCAG”, 8960 fluorescence intensity (a.u.); to “CGGATTCTTCTTTACGTCACGTATTGCATGCCCCTCTTATCGGAGTCACCTAGTGCAG”, 9260 fluorescence intensity (a.u.).
On to “CACGTTGCTCATTCTAATCAATATCCTGCCCAAACAGTTTCGGAGTCACCTAGTGCAG”, for which the binding signal was 10500 fluorescence intensity (a.u.).
To “GGCGGCGGGTTGAGGAGGTGTGCTAGCTAGCGGCGGCGGCCGGAGTCACCTAGTGCAG” belongs 8730 fluorescence intensity (a.u.); to “CAATAGGTGGGCTTGTTGTTAATGTCATTGGACTGGTTTTCGGAGTCACCTAGTGCAG”, 10500 fluorescence intensity (a.u.); to “GCCGGCCCATCGTGTCCGCTATCTTCTAACAGGCCGGCCTCGGAGTCACCTAGTGCAG”, 9360 fluorescence intensity (a.u.).
To “GCAGCAGACAACGTGGGTGTGGTGCGCGGGAGGGTGGGCCCGGAGTCACCTAGTGCAG” belongs 8510 fluorescence intensity (a.u.); to “TTCATCCCGACATATCATAGCCGCTGGAAATAAATGGCCTCGGAGTCACCTAGTGCAG”, 8980 fluorescence intensity (a.u.); to “TTTCTCTACCTGTGCCGCGCCCACGGTTCTAGTACCACTACGGAGTCACCTAGTGCAG”, 9940 fluorescence intensity (a.u.).
To “TTTACCTTGGTTATCTTCTCCTATTTCAATACTCGTGTGTCGGAGTCACCTAGTGCAG” belongs 8650 fluorescence intensity (a.u.).
As to “CCATGCCGAATTTTCCGTACTTCTTTTCCATGCGAGTTTTCGGAGTCACCTAGTGCAG”, the binding signal is 9700 fluorescence intensity (a.u.).
With “GTTTTACGTTAGCACTCTTTCATCCTTACTATCAAGGTGACGGAGTCACCTAGTGCAG” the figure was 9950 fluorescence intensity (a.u.).
Consider “CCCTAGCGCGGCGCCATCATCATCCCAATCGTCCGCTACACGGAGTCACCTAGTGCAG”, for which the binding signal was 8250 fluorescence intensity (a.u.).
“TGGCAAACTTTGACTTTGTTCTTGGTCCATGATTTTGATCCGGAGTCACCTAGTGCAG”: the binding signal is 9570 fluorescence intensity (a.u.).
As for “TATTTCTATATGGACTTAGTCTCCTCTTCTAATATTCCTTCGGAGTCACCTAGTGCAG”, the binding signal is 8120 fluorescence intensity (a.u.).
For the sequence “AGGGAGGGGAAGGGGAAGCTCGTGGGAGTCGTAGTGATTCCGGAGTCACCTAGTGCAG”, the binding signal is 8120 fluorescence intensity (a.u.).
